# Measured values from PMC8178412.
# Chains of the proteins cited; added tags and fusions are not shown.
# UniProt P02340: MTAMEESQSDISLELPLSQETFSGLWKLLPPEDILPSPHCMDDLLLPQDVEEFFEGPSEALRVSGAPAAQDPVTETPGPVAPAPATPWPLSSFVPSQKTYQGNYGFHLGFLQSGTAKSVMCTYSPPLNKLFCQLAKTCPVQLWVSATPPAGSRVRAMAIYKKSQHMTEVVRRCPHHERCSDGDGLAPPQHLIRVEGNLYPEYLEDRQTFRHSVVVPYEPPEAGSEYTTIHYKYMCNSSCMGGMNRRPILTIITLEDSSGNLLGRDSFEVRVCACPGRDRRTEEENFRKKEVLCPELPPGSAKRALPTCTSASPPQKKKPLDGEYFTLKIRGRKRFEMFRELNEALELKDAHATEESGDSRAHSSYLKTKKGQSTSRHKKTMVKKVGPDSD
# Results are given in words; binding and its absence hold for the method and conditions named. In cells and extracts the contact can be indirect. Some entries that bind do so weakly or less than the wild type. For some of these results: Sequences can lack the tags named with a protein.
# B1: Zbtb7c (endogenous, mouse liver) (protein, UniProt Q8VCZ7 1-619)
# chain: MANDIDELIGIPFPNHSSEVLCSLNEQRHAGLLCDVLLVVQEQEYRTHRSVLAACSKYFKKLFTAGSLASQPYVYEIDFVQPEALAAILEFAYTSTLTITASNVKHILNAARMLEIQCIVNVCLEIMEPGGSVGEEDDKEEEDEDDDDEDEDDEEEEEEEEEEEEDDPEDFADQENLPDPQDITCPQSPSKTDHLTEKDYSDTPRDFPDSFQPGSPGHLGVIRDFSIESLLRENLYPKANIPDRRPSLSPFAPEFFPHLWPGGFGAFAQLPEQPMDSGPLDLVIKNRKIKEEDKEELAPPPPPPFSSDFFKDMFPDLPGGPLGPIKAENDYGAYLNFLSATHLGSLFPPWPLVEERKLKPKASQQCPICHKVIMGAGKLPRHMRTHTGEKPYMCSICEVRFTRQDKLKIHMRKHTGERPYLCIHCNAKFVHNYDLKNHMRIHTGVRPYQCEFCYKSFTRSDHLHRHIKRQSCRMARPRRGRKPAAWRAASLLFGPGGPSADKAAFVMPPALGDVGGHLGGTAVCLPGPSPAKHFLASPKGTLSLQELERQFEETQMKLFGRAQLEAERNAGGLLALALAENVAATRPYFPLPDPWAAGLAGLPGLTGLNHVASMSEANN
# B2: Myc-tagged Zbtb7c (protein, UniProt Q8VCZ7 1-619)
# chain: B1 chain
# B3: mSin3A (protein, UniProt Q60520 1-1274)
# chain: MKRRLDDQESPVYAAQQRRIPGSTEAFSHQHRVLAPAPPVYEAVSETMQSATGIQYSVAPNYQVSAVPQSSGSHGPAIAAVHSSHHHPTAVQPHGGQVVQSHAHPAPPVAPVQGQQQFQRLKVEDALSYLDQVKLQFGSQPQVYNDFLDIMKEFKSQSIDTPGVISRVSQLFKGHPDLIMGFNTFLPPGYKIEVQTNDMVNVTTPGQVHQIPTHGIQPQPQPPPQHPSQPSSQSAPTPAQPAPQPTAAKVSKPSQLQAHTPASQQTPPLPPYASPRSPPVQPHTPVTISLGTAPSLQNNQPVEFNHAINYVNKIKNRFQGQPDIYKAFLEILHTYQKEQRNAKEAGGNYTPALTEQEVYAQVARLFKNQEDLLSEFGQFLPDANSSVLLSKTTAEKVDSVRNDHGGTVKKPQLNNKPQRPSQNGCQIRRHSGTGATPPVKKKPKLMSLKESSMADASKHGVGTESLFFDKVRKALRSAEAYENFLRCLVIFNQEVISRAELVQLVSPFLGKFPELFNWFKNFLGYKESVHLESFPKERATEGIAMEIDYASCKRLGSSYRALPKSYQQPKCTGRTPLCKEVLNDTWVSFPSWSEDSTFVSSKKTQYEEHIYRCEDERFELDVVLETNLATIRVLEAIQKKLSRLSAEEQAKFRLDNTLGGTSEVIHRKALQRIYADKAADIIDGLRKNPSIAVPIVLKRLKMKEEEWREAQRGFNKVWREQNEKYYLKSLDHQGINFKQNDTKVLRSKSLLNEIESIYDERQEQATEENAGVPVGPHLSLAYEDKQILEDAAALIIHHVKRQTGIQKEDKYKIKQIMHHFIPDLLFAQRGDLSDVEEEEEEEMDVDEATGAPKKHNGVGGSPPKSKLLFSNTAAQKLRGMDEVYNLFYVNNNWYIFMRLHQILCLRLLRICSQAERQIEEENREREWEREVLGIKRDKSDSPAIQLRLKEPMDVDVEDYYPAFLDMVRSLLDGNIDSSQYEDSLREMFTIHAYIAFTMDKLIQSIVRQLQHIVSDEVCVQVTDLYLAENNNGATGGQLNSQTSRSLLESAYQRKAEQLMSDENCFKLMFIQSQGQVQLTVELLDTEEENSDDPVEAERWSDYVERYMSSDTTSPELREHLAQKPVFLPRNLRRIRKCQRGREQQEKEGKEGNSKKTMENVESLDKLECRFKLNSYKMVYVIKSEDYMYRRTALLRAHQSHERVSKRLHQRFQAWVDKWTKEHVPREMAAETSKWLMGEGLEGLVPCTTTCDTETLHFVSINKYRVKYGTVFKAP
# Assays:
# [1] = target: p53 (endogenous, mouse) (mouse (endogenous in mouse liver, NIH3T3 and MEFs)) (UniProt P02340); experiment: co-IP; liver extracts of mice fed chow or HFD; lysis buffer 20 mM Tris-HCl pH 7.5, 150 mM NaCl, 10% glycerol, 1% Triton X-100; anti-p53 antibody overnight at 4 °C, protein A/G PLUS-Agarose beads; western blot
# [2] = target: p53 (endogenous, mouse) (mouse (endogenous in mouse liver, NIH3T3 and MEFs)) (UniProt P02340); experiment: co-IP; NIH3T3 lysates with or without ectopic Zbtb7c; lysis buffer 20 mM Tris-HCl pH 7.5, 150 mM NaCl, 10% glycerol, 1% Triton X-100; antibody (Zbtb7c, p53 or Myc) overnight at 4 °C, protein A-Sepharose beads; western blot
# [3] = target: p53 (endogenous, mouse) (mouse (endogenous in mouse liver, NIH3T3 and MEFs)) (UniProt P02340); experiment: co-IP; total extracts of WT and Zbtb7c-KO MEFs; lysis buffer 20 mM Tris-HCl pH 7.5, 150 mM NaCl, 10% glycerol, 1% Triton X-100; anti-p53 antibody overnight at 4 °C, protein A-Sepharose beads; western blot
Binder,binding [1],binding [2],binding [3]
B1,binds,–,–
B2,–,binds,–
B3,–,binds,binds
